Data published in patent US7705189B2, “Calixarene compound, process for producing the same, intermediate therefor, and composition thereof” (JSR Corporation, priority 2004, dated 2010).

Test: Cationic photopolymerization with DPSP photoacid generator, conversion by FT-IR
Conditions: for Conversion rate in cationic photopolymerization: irradiation for 360 seconds, 360 nm, 15 mW/cm^2

In the case of C=COCCOc1cc(OCCOC=C)c2cc1C1CCCC3c4cc(c(OCCOC=C)cc4OCCOC=C)C4CCCC5c6cc(c(OCCOC=C)cc6OCCOC=C)C(CCCC6c7cc(c(OCCOC=C)cc7OCCOC=C)C(CCCC7c8cc(c(OCCOC=C)cc8OCCOC=C)C(CCCC(c8cc(c(OCCOC=C)cc8OCCOC=C)C(CCCC2c2cc4c(OCCOC=C)cc2OCCOC=C)c2cc7c(OCCOC=C)cc2OCCOC=C)c2cc1c(OCCOC=C)cc2OCCOC=C)c1cc6c(OCCOC=C)cc1OCCOC=C)c1cc5c(OCCOC=C)cc1OCCOC=C)c1cc3c(OCCOC=C)cc1OCCOC=C [T3-6], the “Conversion rate in cationic photopolymerization” value (1 mol % DPSP) is reported as 40%, the “Conversion rate after heating the irradiated film” value (5 mol % DPSP, irradiated 360 seconds, then heated at 150° C.) is reported as “did not improve” and the “Conversion rate in cationic photopolymerization” value (5 mol % DPSP) is reported as 80%.
